Here are results for one substance from patent US9463252B2 (priority 2008, dated 2016).

Data set [1] is described as follows: general procedure: Fmoc solid-phase peptide synthesis; 2-chlorotrityl resin; HATU/DIEA. Conditions: whole synthesis, scale 2.4 mmol.
Data set [2] in a line: general procedure: Fmoc solid-phase peptide synthesis; Fmoc-AA-diaminoethane trityl resin; 2-chlorotrityl resin; HATU/DIEA. The note with it: whole synthesis, scale of the general procedure 0.1 mmol.

Turning to Dov-Val-Dil-Dap-Phe (AF), in data set [1], the isolated mass came out at 1.6 g. The same substance displayed an isolated yield in data set [2] of 89%.
